Results are given in words; binding and its absence hold for the method and conditions named. In cells and extracts the contact can be indirect. These calls come from enrichment with a bait or labelling near it, and not all partners need be listed.

B1: U1-70K (protein, UniProt Q42404 1-427)
chain: MGDSGDPFLRNPNAAVQARAKVQNRANVLQLKLMGQSHPTGLTNNLLKLFEPRPPLEYKPPPEKRKCPPYTGMAQFVSNFAEPGDPEYAPPKPEVELPSQKRERIHKLRLEKGVEKAAEDLKKYDPNNDPNATGDPYKTLFVSRLNYESSESKIKREFESYGPIKRVHLVTDQLTNKPKGYAFIEYMHTRDMKAAYKQADGQKIDGRRVLVDVERGRTVPNWRPRRLGGGLGTSRVGGGEEIVGEQQPQGRTSQSEEPSRPREEREKSREKGKERERSRELSHEQPRERSRDRPREDKHHRDRDQGGRDRDRDSRRDRDRTRDRGDRDRRDRDRGRDRTSRDHDRDRSRKKERDYEGGEYEHEGGGRSRERDAEYRGEPEETRGYYEDDQGDTDRYSHRYDKMEEDDFRYEREYKRSKRSESREYVR
B2: SERRATE (SE) (protein, UniProt Q9ZVD0 1-720)
chain: MADVNLPPSDSVDNRLPEKSTSSSPPPPPPSSSLPQQEQEQDQQQLPLRRERDSRERRDERDIERPPPNRRERDRSPLPPPRRDYKRRPSLSPPPPYRDRRHSPPQRRSPPQKRYRRDDNGYDGRRGSPRGGYGPPDRRFGYDHGGGYDREMGGRPGYGDERPHGRFMGRYQDWEGGRGGYGDASNSGNPQRDGLMSYKQFIQELEDDILPSEAERRYQEYKSEYITTQKRAFFNTHKEEDWLKNKYHPTNLLSVIERRNDLAQKVAKDFLLDLQSGTLDLGPAVTALNKSGRTSEPNSEDEAAGVGKRKRHGMGGAKENELLSAAPKAPSFTSDPKRILTDVEQTQALVRKLDSEKKIEENVLQGSETEKSGREKLHSGSTGPVVIIRGLTSVKGLEGVELLDTLVTYLWRVHGLDYYGKVETNEAKGLRHVRAEGKVSDAKGDENESKFDSHWQERLKGQDPLEVMAAKEKIDAAATEALDPHVRKIRDEKYGWKYGCGAKGCTKLFHAAEFVYKHLKLKHTELVTELTTKVREELYFQNYMNDPNAPGGQPATQQSGPRDRPIRRKPSMENRLRDDRGGRRERDGRANGNDRNDRSEDQQRGDNDGGNPGEVGYDAFGGQGGVHVPPFLSDINPPPMLMPVPGAGPLGPFVPAPPEVAMQMFRDPSGPNPPFEGSGRGGPAPFLLSPAFRQDPRRLRSYQDLDAPEEEVTVIDYRSL
B3: SCL30A (protein, UniProt Q9LHP2 1-262)
chain: MRGRSYTPSPPRGYGRRGRSPSPRGRFGGSRDSDLPTSLLVRNLRHDCRQEDLRRPFEQFGPVKDIYLPRDYYTGDPRGFGFIQFMDPADAAEAKHQMDGYLLLGRELTVVFAEENRKKPTEMRTRDRGGRSNRFQDRRRSPPRYSRSPPPRRGRRSRSRSRGYNSPPAKRHQSRSVSPQDRRYEKERSYSRSPPHNGSRVRSGSPGRVKSHSRSPRRSVSPRKNRSYTPEQARSQSPVPRQSRSPTPVPRGAQNGDRSPSQ
B4: RBP47C (protein, UniProt Q9SX79 1-432)
chain: MADVKIQSESESSDSHPVVDNQPPPPPPPPQQPAKEEENQPKTSPTPPPHWMRYPPTVIIPHQMMYAPPPFPPYHQYPNHHHLHHQSRGNKHQNAFNGENKTIWVGDLHHWMDEAYLNSSFASGDEREIVSVKVIRNKNNGLSEGYGFVEFESHDVADKVLREFNGTTMPNTDQPFRLNWASFSTGEKRLENNGPDLSIFVGDLSPDVSDNLLHETFSEKYPSVKAAKVVLDANTGRSKGYGFVRFGDENERTKAMTEMNGVKCSSRAMRIGPATPRKTNGYQQQGGYMPNGTLTRPEGDIMNTTIFVGGLDSSVTDEDLKQPFNEFGEIVSVKIPVGKGCGFVQFVNRPNAEEALEKLNGTVIGKQTVRLSWGRNPANKQPRDKYGNQWVDPYYGGQFYNGYGYMVPQPDPRMYPAAPYYPMYGGHQQQVS
B5: SCL33 (protein, UniProt Q9SEU4 1-287)
chain: MRGRSYTPSPPRGYGRRGRSPSPRGRYGGRSRDLPTSLLVRNLRHDCRQEDLRKSFEQFGPVKDIYLPRDYYTGDPRGFGFVQFMDPADAADAKHHMDGYLLLGRELTVVFAEENRKKPTEMRARERGGGRFRDRRRTPPRYYSRSRSPPPRRGRSRSRSGDYYSPPPRRHHPRSISPREERYDGRRSYSRSPASDGSRGRSLTPVRGKSRSLSPSPRRSISRSPRRSRSPSPKRNRSVSPRRSISRSPRRSRSPRRSRRSYTPEPARSRSQSPHGGQYDEDRSPSQ
B6: ABH1/CBP80 (protein, UniProt Q9SIU2 1-848)
chain: MSNWKTLLLRIGEKGPEYGTSSDYKDHIETCFGVIRREIERSGDQVLPFLLQCAEQLPHKIPLYGTLIGLLNLENEDFVQKLVESVHANFQVALDSGNCNSIRILLRFMTSLLCSKVIQPASLIVVFETLLSSAATTVDEEKGNPSWQPQADFYVICILSSLPWGGSELAEQVPDEIERVLVGIQAYLSIRKNSSTSGLNFFHNGEFESSLAEKDFVEDLLDRIQSLASNGWKLESVPRPHLSFEAQLVAGKFHELRPIKCMEQPSPPSDHSRAYSGKQKHDALTRYPQRIRRLNIFPANKMEDVQPIDRFVVEEYLLDVLFYLNGCRKECASYMANLPVTFRYEYLMAETLFSQILLLPQPPFKTLYYTLVIMDLCKALPGAFPAVVAGAVRALFEKISDLDMESRTRLILWFSHHLSNFQFIWPWEEWAFVLDLPKWAPKRVFVQEILQREVRLSYWDKIKQSIENATALEELLPPKAGPNFMYSLEEGKEKTEEQQLSAELSRKVKEKQTARDMIVWIEETIYPVHGFEVTLTIVVQTLLDIGSKSFTHLVTVLERYGQVFSKLCPDNDKQVMLLSQVSTYWKNNVQMTAVAIDRMMGYRLVSNQAIVRWVFSPENVDQFHVSDQPWEILGNALNKTYNRISDLRKDISNITKNVLVAEKASANARVELEAAESKLSLVEGEPVLGENPAKMKRLKSTVEKTGEAELSLRESLEAKEALLNRALSETEVLLLLLFQSFLGVLKERLPDPTKVRSVQDLKSIGAEDDKPSAMDVDSENGNPKKSCEVGEREQWCLSTLGYLTAFTRQYASEIWPHMEKLESEVFSGEDVHPLFLQAISSALQFPLH
B7: SR30 (protein, UniProt Q9XFR5 1-268)
chain: MSSRWNRTIYVGNLPGDIRKCEVEDLFYKYGPIVDIDLKIPPRPPGYAFVEFEDPRDADDAIYGRDGYDFDGCRLRVEIAHGGRRFSPSVDRYSSSYSASRAPSRRSDYRVLVTGLPPSASWQDLKDHMRKAGDVCFSEVFPDRKGMSGVVDYSNYDDMKYAIRKLDATEFRNAFSSAYIRVREYESRSVSRSPDDSKSYRSRSRSRGPSCSYSSKSRSVSPARSISPRSRPLSRSRSLYSSVSRSQSRSKSRSRSRSNSPVSPVISG

The assay has as its target LUC7A-YFP (LETHAL UNLESS CBC 7 A, AthLUC7A) (Arabidopsis thaliana). Kind of assay: affinity purification with mass spectrometry.
For the molecule B1, the binding entry is recorded as “binds”.

For B2, the binding entry was “binds”.

As for B3, the binding entry was “binds”.

As for B4, the binding entry is reported as “binds”.

Regarding B5, the binding entry was “binds”.

In the case of B6, the binding entry was “binds”.

In the case of B7, the binding entry was “binds”.

The values are drawn from publication doi:10.1101/150805.
